Test results published in the supplement of paper PMC8728848.
This is one part of the list.

Assays:
Assay in all cases: glycan array binding signal (z-score within array); higher = stronger binding
Conditions in all cases: glycan notation: IUPAC condensed, linker removed
Gal(a1-3)GalNAc = target: Gal(a1-3)GalNAc
How it was run: (§1)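 Glycan array data came from 3228 arrays in the Consortium for Functional Glycomics database, and only arrays with an available protein sequence were kept. Glycan names were put into IUPAC-condensed notation, and columns mapping to the same glycan were averaged. The binding signal is a within-array Z-score, averaged across arrays of one protein sequence run at different concentrations or buffers and across linkers. A negative Z-score can be read as non-binding.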

[1] = target: Gal(a1-3)[Gal(a1-4)]Gal(b1-4)GlcNAc
How it was run: as §1

[2] = target: Gal(a1-4)Gal(b1-3)GlcNAc(b1-2)Man(a1-3)[Gal(a1-4)Gal(b1-3)GlcNAc(b1-2)Man(a1-6)]Man(b1-4)GlcNAc(b1-4)GlcNAc
How it was run: as §1

Gal(a1-4)Gal(b1-4)Glc = target: Gal(a1-4)Gal(b1-4)Glc
How it was run: as §1

Gal(a1-4)Gal(b1-4)GlcNAc = target: Gal(a1-4)Gal(b1-4)GlcNAc
How it was run: as §1

[3] = target: Gal(a1-4)Gal(b1-4)GlcNAc(b1-2)Man(a1-3)[Gal(a1-4)Gal(b1-4)GlcNAc(b1-2)Man(a1-6)]Man(b1-4)GlcNAc(b1-4)GlcNAc
How it was run: as §1

[4] = target: Gal(a1-4)Gal(b1-4)GlcNAc(b1-3)Gal(b1-4)Glc
How it was run: as §1

Gal(a1-4)GlcNAc = target: Gal(a1-4)GlcNAc
How it was run: as §1

Gal(a1-6)Glc = target: Gal(a1-6)Glc
How it was run: as §1

Gal(b1-2)Gal = target: Gal(b1-2)Gal
How it was run: as §1

Gal(b1-3)Gal = target: Gal(b1-3)Gal
How it was run: as §1

Gal(b1-3)Gal(b1-4)GlcNAc = target: Gal(b1-3)Gal(b1-4)GlcNAc
How it was run: as §1

[5] = target: Gal(b1-3)Gal(b1-4)GlcNAc(b1-2)Man(a1-3)[Gal(b1-3)Gal(b1-4)GlcNAc(b1-2)Man(a1-6)]Man(b1-4)GlcNAc(b1-4)GlcNAc
How it was run: as §1

Gal(b1-3)GalNAc = target: Gal(b1-3)GalNAc
How it was run: as §1

[6] = target: Gal(b1-3)GalNAc(a1-3)[Fuc(a1-2)]Gal(b1-4)Glc
How it was run: as §1

[7] = target: Gal(b1-3)GalNAc(a1-3)[Fuc(a1-2)]Gal(b1-4)GlcNAc
How it was run: as §1

[8] = target: Gal(b1-3)GalNAc(b1-3)Gal(a1-4)Gal(b1-4)Glc
How it was run: as §1

[9] = target: Gal(b1-3)GalNAc(b1-4)Gal(b1-4)Glc
How it was run: as §1

[10] = target: Gal(b1-3)GalNAc(b1-4)[Neu5Ac(a2-3)]Gal(b1-4)Glc
How it was run: as §1

Gal(b1-3)GlcNAc = target: Gal(b1-3)GlcNAc
How it was run: as §1

[11] = target: Gal(b1-3)GlcNAc(a1-6)Gal(b1-4)GlcNAc
How it was run: as §1

[12] = target: Gal(b1-3)GlcNAc(b1-2)Man(a1-3)[Gal(b1-3)GlcNAc(b1-2)Man(a1-6)]Man(b1-4)GlcNAc(b1-4)GlcNAc
How it was run: as §1

[13] = target: Gal(b1-3)GlcNAc(b1-2)Man(a1-3)[Gal(b1-3)GlcNAc(b1-2)Man(a1-6)]Man(b1-4)GlcNAc(b1-4)[Fuc(a1-6)]GlcNAc
How it was run: as §1

[14] = target: Gal(b1-3)GlcNAc(b1-3)Gal(b1-3)GlcNAc
How it was run: as §1

[15] = target: Gal(b1-3)GlcNAc(b1-3)Gal(b1-4)Glc
How it was run: as §1

[16] = target: Gal(b1-3)GlcNAc(b1-3)Gal(b1-4)GlcNAc
How it was run: as §1

[17] = target: Gal(b1-3)GlcNAc(b1-3)Gal(b1-4)GlcNAc(b1-6)[Gal(b1-3)GlcNAc(b1-3)]Gal(b1-4)Glc
How it was run: as §1

[18] = target: Gal(b1-3)GlcNAc(b1-3)Gal(b1-4)[Fuc(a1-3)]GlcNAc(b1-6)[Gal(b1-3)GlcNAc(b1-3)]Gal(b1-4)Glc
How it was run: as §1

[19] = target: Gal(b1-3)GlcNAc(b1-3)GalNAc
How it was run: as §1

[20] = target: Gal(b1-3)GlcNAc(b1-6)Gal(b1-4)GlcNAc
How it was run: as §1

[21] = target: Gal(b1-3)[Fuc(a1-4)]GlcNAc
How it was run: as §1

[22] = target: Gal(b1-3)[Fuc(a1-4)]GlcNAc(b1-2)Man(a1-3)[Gal(b1-3)[Fuc(a1-4)]GlcNAc(b1-2)Man(a1-6)]Man(b1-4)GlcNAc(b1-4)GlcNAc
How it was run: as §1

[23] = target: Gal(b1-3)[Fuc(a1-4)]GlcNAc(b1-2)Man(a1-3)[Gal(b1-3)[Fuc(a1-4)]GlcNAc(b1-2)Man(a1-6)]Man(b1-4)GlcNAc(b1-4)[Fuc(a1-6)]GlcNAc
How it was run: as §1

[24] = target: Gal(b1-3)[Fuc(a1-4)]GlcNAc(b1-3)Gal(b1-3)[Fuc(a1-4)]GlcNAc
How it was run: as §1

[25] = target: Gal(b1-3)[Fuc(a1-4)]GlcNAc(b1-3)Gal(b1-4)GlcNAc
How it was run: as §1

[26] = target: Gal(b1-3)[Fuc(a1-4)]GlcNAc(b1-3)Gal(b1-4)[Fuc(a1-3)]GlcNAc
How it was run: as §1

[27] = target: Gal(b1-3)[GlcNAc(b1-6)]GalNAc
How it was run: as §1

B1: BSR4 (Toxoplasma gondii), Q95NL6 (protein)
chain: MVMMGSMQQRRGGLRSNARQLLAVCMSGVVFFSSGQAVADNLLEGLLHRTLQQQVEVTSRLTVAGSDAKCDFFTPATQDSPPVSGSLTLSKGRMTATFECSATQALSISTIPTNIEQNVCDPKKTTNGTVCQFGANGSAGTEVTLKDLLETDRIVNWKVNEQREESNKSQKWSLELHNEDLPLTDKAFVVGCQATSAARGTESGKTAACKLTVNVEARASSLAENNVVTCAYGKGSNPNPVEVEMSTEKNTLTINCGSDGSLQPTTYAEEYCVADSKDVNRCSTTRFVEIFPKFLKSWWVTETQKRTSATLTIPQTDLPEADQQFLVGCVPKKTAPEDPKKDKESGTETGAPTSCTVLVTVKAASSASHASPTVQILAAASSAAA
B1 was tested. Which “glycan array binding signal (z-score)” value (Gal(a1-3)GalNAc) did it give?
Its value is 0.217.

And the “glycan array binding signal (z-score)” value [1]?
The value was -0.812.

And the “glycan array binding signal (z-score)” value [2]?
Its value is -0.234.

What about the “glycan array binding signal (z-score)” value (Gal(a1-4)Gal(b1-4)Glc) of the same binder?
Its value is -0.57.

And the “glycan array binding signal (z-score)” value (Gal(a1-4)Gal(b1-4)GlcNAc)?
Its value is -0.356.

What about the “glycan array binding signal (z-score)” value [3] of the same binder?
The value was 0.496.

And the “glycan array binding signal (z-score)” value [4]?
The value was -0.086.

What about the “glycan array binding signal (z-score)” value (Gal(a1-4)GlcNAc) of the same binder?
The value was -0.167.

What about the “glycan array binding signal (z-score)” value (Gal(a1-6)Glc) of the same binder?
Its value is 0.267.

What about the “glycan array binding signal (z-score)” value (Gal(b1-2)Gal) of the same binder?
Its value is -0.504.

And the “glycan array binding signal (z-score)” value (Gal(b1-3)Gal)?
The value was 0.383.

What about the “glycan array binding signal (z-score)” value (Gal(b1-3)Gal(b1-4)GlcNAc) of the same binder?
The value was 0.289.

What about the “glycan array binding signal (z-score)” value [5] of the same binder?
Its value is -0.339.

What about the “glycan array binding signal (z-score)” value (Gal(b1-3)GalNAc) of the same binder?
Its value is -0.226.

What about the “glycan array binding signal (z-score)” value [6] of the same binder?
The value was -0.221.

And the “glycan array binding signal (z-score)” value [7]?
Its value is -0.147.

And the “glycan array binding signal (z-score)” value [8]?
Its value is -0.349.

What about the “glycan array binding signal (z-score)” value [9] of the same binder?
The value was -0.183.

What about the “glycan array binding signal (z-score)” value [10] of the same binder?
Its value is -0.254.

What about the “glycan array binding signal (z-score)” value (Gal(b1-3)GlcNAc) of the same binder?
The value was -0.694.

What about the “glycan array binding signal (z-score)” value [11] of the same binder?
Its value is -0.08.

What about the “glycan array binding signal (z-score)” value [12] of the same binder?
Its value is -0.329.

And the “glycan array binding signal (z-score)” value [13]?
Its value is -0.009.

What about the “glycan array binding signal (z-score)” value [14] of the same binder?
The value was -0.905.

And the “glycan array binding signal (z-score)” value [15]?
Its value is -0.024.

What about the “glycan array binding signal (z-score)” value [16] of the same binder?
The value was -0.006.

What about the “glycan array binding signal (z-score)” value [17] of the same binder?
Its value is -0.158.

What about the “glycan array binding signal (z-score)” value [18] of the same binder?
Its value is -0.207.

And the “glycan array binding signal (z-score)” value [19]?
Its value is 0.256.

What about the “glycan array binding signal (z-score)” value [20] of the same binder?
The value was 0.471.

What about the “glycan array binding signal (z-score)” value [21] of the same binder?
The value was 0.114.

And the “glycan array binding signal (z-score)” value [22]?
Its value is 1.39.

What about the “glycan array binding signal (z-score)” value [23] of the same binder?
The value was 0.107.

What about the “glycan array binding signal (z-score)” value [24] of the same binder?
The value was -0.029.

What about the “glycan array binding signal (z-score)” value [25] of the same binder?
Its value is 0.277.

What about the “glycan array binding signal (z-score)” value [26] of the same binder?
Its value is 0.393.

What about the “glycan array binding signal (z-score)” value [27] of the same binder?
Its value is -0.408.
